Literature values, collected in US20100092562A1, “SUSTAINED-RELEASE DRUG DELIVERY COMPOSITIONS AND METHODS” (priority 2002, published 2010).
The name of at least one read-out is uncertain.

Conditions: oral administration; previously published studies; cited from earlier work

CN(C)CCC(c1ccc(Cl)cc1)c1ccccn1 (stereo not shown) [chlorpheniramine, 2-pyridinepropanamine, -(4-chlorophenyl)-N,N-dimethyl-, (Z)-2-butenedioate (1:1)]
time to reach Cmax: 2 h
